Results as given in doi:10.1101/2021.11.03.467169.
Results are given in words; binding and its absence hold for the method and conditions named.

By UniProt entry, the sequences of proteins in these tests, tags left out. Where a name states a change or a piece, a line headed by the entry shows the natural chain unless it says otherwise.
UniProt P08913: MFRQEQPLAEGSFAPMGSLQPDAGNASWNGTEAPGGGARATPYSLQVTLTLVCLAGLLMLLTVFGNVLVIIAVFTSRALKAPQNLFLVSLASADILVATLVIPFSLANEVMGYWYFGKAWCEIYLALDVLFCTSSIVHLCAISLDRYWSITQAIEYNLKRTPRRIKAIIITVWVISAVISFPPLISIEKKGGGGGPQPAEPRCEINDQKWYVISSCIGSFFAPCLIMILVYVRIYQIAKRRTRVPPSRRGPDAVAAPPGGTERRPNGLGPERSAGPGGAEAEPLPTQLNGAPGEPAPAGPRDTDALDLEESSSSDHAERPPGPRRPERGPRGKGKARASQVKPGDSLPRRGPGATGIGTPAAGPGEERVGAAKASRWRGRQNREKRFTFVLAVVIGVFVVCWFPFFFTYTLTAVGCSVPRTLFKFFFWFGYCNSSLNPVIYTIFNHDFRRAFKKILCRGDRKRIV
UniProt P63096: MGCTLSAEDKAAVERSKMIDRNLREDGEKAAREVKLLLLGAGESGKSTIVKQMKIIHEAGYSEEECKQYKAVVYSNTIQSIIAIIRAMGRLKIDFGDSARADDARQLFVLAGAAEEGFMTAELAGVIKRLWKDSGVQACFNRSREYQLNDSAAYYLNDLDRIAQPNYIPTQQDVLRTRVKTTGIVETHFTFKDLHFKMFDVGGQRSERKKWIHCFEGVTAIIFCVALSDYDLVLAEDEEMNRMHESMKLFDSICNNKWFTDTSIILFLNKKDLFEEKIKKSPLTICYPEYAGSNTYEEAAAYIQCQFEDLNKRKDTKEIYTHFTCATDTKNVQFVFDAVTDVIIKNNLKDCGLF

Tests used:
[1] = biological target: G-ADRA2A (adrenergic receptor ADRA2A labelled with mEGFP) (UniProt P08913); test: spectrally resolved raster image correlation spectroscopy
[2] = biological target: G-ADRA2A (adrenergic receptor ADRA2A labelled with mEGFP) (UniProt P08913); test: fluorescence covariance matrix analysis

For “GNAI1-Y (GNAI1 carrying an mEYFP(Q69K) tag in the αb-αc loop) (from UniProt P63096 1-354)”, the binding [1] was “no binding” and the binding [2] was “no binding”.
